Reference: PubChem BioAssay AID652259 (Drosophila RNAi Screening Center, 2013)
Purpose: 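Genome-wide hunt for genes that control Wingless pathway activity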 (primary screen). System: Drosophila clone 8 imaginal disc epithelial cells. Reagents: long dsRNA against Drosophila genes. Challenge: pathway stimulated by co-transfected Wingless expression plasmid. Measured: 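Dual luciferase reads per well after Wingless plasmid stimulation: reporter firefly light and Renilla control light; activity is firefly divided by Renilla, a ratio not deposited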. Direction: firefly reporter light: higher = more Wg reporter light, before normalisation; Renilla control light: higher = more transfected or surviving cells. Hit rule: 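a knock-down is a candidate when at least two out of four statistical tests show it departing from its plate mean; one test alone signals a weak candidate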. Calls: active = candidate regulator (raises or lowers reporter); inactive = not a candidate.
In all, the deposit lists about 22,000 reagents; shown is an unselected part of those with a known target gene and a result. Over the whole deposit, 233 (1.1%) were called active. 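Light values are raw, unnormalised plate reads; the ratio scores behind the reporter calls were not deposited.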 A number with no mark means an inactive call. Names joined by + are all predicted targets of the reagent. Not stated in the record: the amount of reagent, the time to read-out, the dose of the treatment.

| Gene | DRSC id | reporter change call, replicate 1 | firefly reporter light, replicate 1 | firefly reporter light, replicate 2 | Renilla control light, replicate 1 | Renilla control light, replicate 2 |
| --- | --- | --- | --- | --- | --- | --- |
| msd5 (GeneID 38156) | DRSC08560 | – | 4016 | – | 1921 | – |
| wmd (GeneID 37727) | DRSC04436 | – | 5936 | – | 1664 | – |
| RAF2 (GeneID 39821) | DRSC10443 | – | 8119 | – | 2405 | – |
| RAF2 (GeneID 39821) | DRSC10454 | – | 9659 | – | 3318 | – |
| Klp98A (GeneID 43310) | DRSC16724 | – | 9948 | – | 4282 | – |
| Klp98A (GeneID 43310) | DRSC21834 | – | 3.76e5 | 4.71e5 | 1.33e5 | 1.74e5 |
| CG12964 (GeneID 36714) | DRSC06266 | Wg reporter activity raised | 8192 | 8.49e5 | 1686 | 4.01e5 |
| CG14000 (GeneID 33820) | DRSC02332 | – | 1720 | 5411 | 644 | 1222 |
| O-fut2 (GeneID 31098) | DRSC18608 | – | 2938 | 4746 | 1152 | 2042 |
| Vps28 (GeneID 47408) | DRSC06168 | – | 10620 | – | 1811 | – |
| CG5697 (GeneID 42483) | DRSC15858 | – | 19898 | – | 4427 | – |
| CR30029 (GeneID 5740197) | DRSC06724 | – | 8032 | – | 2522 | – |
| Ser8 (GeneID 36489) | DRSC06891 | – | 9057 | – | 2736 | – |
| CR12842 (GeneID 12798079) | DRSC06188 | – | 3378 | 4448 | 752 | 2183 |
| edl (GeneID 37149) | DRSC06516 | – | 14005 | – | 5240 | – |
| CG2021 (GeneID 38229) | DRSC08546 | – | 7575 | – | 3728 | – |
| CG15480 (GeneID 34723) | DRSC02490 | – | 2816 | 8293 | 1605 | 3596 |
| CG31365 (GeneID 42736) | DRSC15610 | – | 3778 | 9209 | 1961 | 3680 |
| CG9962 (GeneID 33448) | DRSC00739 | – | 2149 | 7094 | 877 | 2625 |
| CG13239 (GeneID 40503) | DRSC11694 | – | 9797 | – | 3803 | – |
| CG10646 (GeneID 39426) | DRSC09764 | – | 4836 | – | 1309 | – |
| eEF1beta (GeneID 45249) | DRSC07419 | – | 10466 | – | 3648 | – |
| vn (GeneID 38657) | DRSC11408 | Wg reporter activity raised (active) | 4957 | 11466 | 1212 | 1858 |
| CG3640 (GeneID 37942) | DRSC04399 | – | 2796 | 9573 | 1136 | 3228 |
| Smox (GeneID 31738) | DRSC18716 | – | 25281 | – | 9672 | – |
| mthl4 (GeneID 36960) | DRSC06998 | – | 9574 | – | 3906 | – |
| CG44000 + CG33995 + CG44001 | DRSC00853 | – | 22502 | – | 10496 | – |
| CG44000 + CG33995 + CG44001 | DRSC02898 | – | 16393 | – | 8212 | – |
| CG12376 (GeneID 35857) | DRSC06144 | – | 16611 | – | 6441 | – |
| Arp3 (GeneID 38898) | DRSC09669 | – | 6258 | – | 2299 | – |
| CG15831 (retired record) (GeneID 3355006) | DRSC20816 | – | 19907 | – | 8481 | – |
| CG34045 (GeneID 3885656) | DRSC05787 | – | 30608 | – | 20635 | – |
| CG14860 (GeneID 41803) | DRSC14983 | – | 19510 | – | 6595 | – |
| Ugt37D1 (GeneID 53511) | DRSC02645 | – | 1908 | 5978 | 964 | 2787 |
| CR12798 (GeneID 10178819) | DRSC21078 | – | 18400 | – | 8320 | – |
| yellow-h (GeneID 43779) | DRSC17141 | – | 16973 | – | 10532 | – |
| ouib (GeneID 41039) | DRSC14376 | – | 16118 | – | 3939 | – |
| borr (GeneID 34245) | DRSC02749 | – | 9248 | – | 2085 | – |
| Nagk (GeneID 41863) | DRSC15994 | – | 4930 | – | 2357 | – |
| Gabat (GeneID 40188) | DRSC10846 | – | 12656 | – | 2744 | – |
| CG13144 (GeneID 34444) | DRSC02241 | – | 2668 | 5522 | 672 | 2934 |
| eIF5 (GeneID 32566) | DRSC20165 | – | 4032 | 5408 | 1244 | 1849 |
| mam (GeneID 36555) | DRSC05468 | – | 11575 | – | 10000 | – |
| mam (GeneID 36555) | DRSC07648 | Wg reporter activity raised (active) | 8657 | – | 698 | – |
| CG6066 (GeneID 43267) | DRSC15959 | – | 10475 | – | 4281 | – |
| CG6066 (GeneID 43267) | DRSC22228 | – | 1.02e6 | 9.13e5 | 5.16e5 | 4.95e5 |
| CycJ (GeneID 38428) | DRSC08653 | – | 3177 | – | 1322 | – |
| Zip42C.1 (GeneID 35579) | DRSC05003 | – | 3821 | 6759 | 651 | 1644 |
| Amph (GeneID 36383) | DRSC07578 | – | 9408 | – | 2437 | – |
| lmgA + lmgB | DRSC03566 | – | 2701 | 6373 | 940 | 2541 |
| Or1a (GeneID 30978) | DRSC18689 | – | 23658 | – | 14477 | – |
| Spn42De (GeneID 35602) | DRSC05011 | – | 1529 | 6419 | 722 | 2836 |
| Blos2 (GeneID 39234) | DRSC10147 | – | 6470 | – | 2387 | – |
| eRF3 (GeneID 34658) | DRSC03322 | – | 2145 | 4560 | 1168 | 3591 |
| reb (GeneID 36275) | DRSC06308 | – | 4732 | – | 2186 | – |
| CG17097 (GeneID 34461) | DRSC02569 | – | 3126 | 6043 | 1156 | 2373 |
| feo (GeneID 32015) | DRSC19398 | – | 3968 | – | 1201 | – |
| CG14223 (GeneID 32972) | DRSC19580 | – | 26213 | – | 11004 | – |
| CG11970 (GeneID 41072) | DRSC14157 | – | 5745 | – | 1488 | – |
| l(3)L1231 (GeneID 41776) | DRSC16323 | – | 4896 | – | 2672 | – |
| CG13228 (GeneID 36178) | DRSC06348 | – | 6407 | – | 2445 | – |
| CG34217 (GeneID 5740254) | DRSC05083 | – | 16052 | – | 6247 | – |
| CCDC53 (GeneID 34097) | DRSC03056 | – | 2150 | 4171 | 902 | 2325 |
| Dgkepsilon (GeneID 36408) | DRSC07399 | – | 9000 | – | 3195 | – |
| CG11811 (GeneID 39213) | DRSC09862 | – | 5617 | – | 1936 | – |
| CG34305 (GeneID 5740825) | DRSC11995 | – | 2770 | – | 1357 | – |
| velo (GeneID 38748) | DRSC08841 | – | 7604 | – | 529 | – |
| velo (GeneID 38748) | DRSC09698 | Wg reporter activity raised | 12573 | – | 1335 | – |
| CG5623 (GeneID 41904) | DRSC15848 | – | 21208 | – | 6640 | – |
| CG10943 (GeneID 39462) | DRSC09805 | – | 5831 | – | 1754 | – |
| CG9588 (GeneID 41672) | DRSC16504 | – | 14024 | – | 2662 | – |
| CG14543 (GeneID 43167) | DRSC14887 | – | 17190 | – | 16225 | – |
| Pkd2 (GeneID 34651) | DRSC02962 | – | 1209 | 4871 | 933 | 3207 |

Looked up above.
For “Renilla control light, replicate 1”, CG14860 (GeneID 41803) [DRSC14983] is entered as 6595
feo (GeneID 32015) [DRSC19398], firefly reporter light, replicate 1 = 3968
Entry for mam (GeneID 36555) [DRSC05468] under “Renilla control light, replicate 1”: 10000
Entry of CG11811 (GeneID 39213) [DRSC09862] in “Renilla control light, replicate 1”: 1936
Value for CG34305 (GeneID 5740825) [DRSC11995] under “firefly reporter light, replicate 1”: 2770
Entry of Klp98A (GeneID 43310) [DRSC16724] in “firefly reporter light, replicate 1”: 9948
